PubChem BioAssay AID1508597 – Cure First – 2020
This is a random part of the about 2,100 reagents, in one setting of the screen. 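Calls flag viability under 80% in either arm, not effects specific to rucaparib; the reference for percent is not stated.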 Some reagents were tested in more than one well and are listed for each. Not stated in the record: the 100% reference.

Purpose: 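Survival screen with siRNA in ovarian cancer cells derived from patients, with or without rucaparib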 (primary screen)
Cells: human ovarian carcinoma lines grown from tumours: OCI-P5x (papillary serous) and OCI-C5x (clear cell)
Knock-down reagent: siRNA pool against human genes, 1.25 pmol siRNA per well
Time to read-out: 72 h or 96 h, depending on the cell culture
Conditions: rucaparib 20 µM (about IC30) or vehicle, present until read-out
Rucaparib or vehicle: Rucaparib
Cell line: OCI-P5x (serous)
Detection: 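ATP luminescence measured at 72 or 96 h according to the culture, then normalised and expressed as percent viability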
Scale: viability, normalised: higher = more viable cells remaining
Call rule: 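a well counts as a hit if its normalised viability is under 80 percent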
Meaning of the calls: active = viability under 80%; inactive = viability 80% or more

PTK2B, technical replicate 1 → viability, normalised (%) = 108; activity call = inactive
PTK2B, technical replicate 2 → viability, normalised (%) = 83.8; activity call = inactive
PTK2B, technical replicate 3 → viability, normalised (%) = 70.6; activity call = active
CHIC1, technical replicate 1 → viability, normalised (%) = 55.9; activity call = active
CHIC1, technical replicate 2 → viability, normalised (%) = 50.9; activity call = active
CHIC1, technical replicate 3 → viability, normalised (%) = 52.4; activity call = active
APPL2, technical replicate 1 → viability, normalised (%) = 87.3; activity call = inactive
APPL2, technical replicate 2 → viability, normalised (%) = 94.4; activity call = inactive
APPL2, technical replicate 3 → viability, normalised (%) = 79.7; activity call = active
UBE2V2, technical replicate 1 → viability, normalised (%) = 99.7; activity call = inactive
UBE2V2, technical replicate 2 → viability, normalised (%) = 89.4; activity call = inactive
UBE2V2, technical replicate 3 → viability, normalised (%) = 83.8; activity call = inactive
TDRD10, technical replicate 1 → viability, normalised (%) = 60.7; activity call = active
TDRD10, technical replicate 2 → viability, normalised (%) = 77; activity call = active
TDRD10, technical replicate 3 → viability, normalised (%) = 59.1; activity call = active
ACIN1, technical replicate 1 → viability, normalised (%) = 52.5; activity call = active
ACIN1, technical replicate 2 → viability, normalised (%) = 59.2; activity call = active
ACIN1, technical replicate 3 → viability, normalised (%) = 54.3; activity call = active
TP53, technical replicate 1 → viability, normalised (%) = 70.3; activity call = active
TP53, technical replicate 1 → viability, normalised (%) = 119; activity call = inactive
TP53, technical replicate 1 → viability, normalised (%) = 45.5; activity call = active
TP53, technical replicate 2 → viability, normalised (%) = 101; activity call = inactive
TP53, technical replicate 2 → viability, normalised (%) = 43.4; activity call = active
TP53, technical replicate 2 → viability, normalised (%) = 92.6; activity call = inactive
TP53, technical replicate 3 → viability, normalised (%) = 70.4; activity call = active
TP53, technical replicate 3 → viability, normalised (%) = 62.9; activity call = active
TP53, technical replicate 3 → viability, normalised (%) = 95.5; activity call = inactive
DBH, technical replicate 1 → viability, normalised (%) = 50.7; activity call = active
DBH, technical replicate 2 → viability, normalised (%) = 48.6; activity call = active
DBH, technical replicate 3 → viability, normalised (%) = 58.7; activity call = active
H2BC12, technical replicate 1 → viability, normalised (%) = 71.9; activity call = active
H2BC12, technical replicate 2 → viability, normalised (%) = 112; activity call = inactive
H2BC12, technical replicate 3 → viability, normalised (%) = 83; activity call = inactive
